Test results from article PMC4376777 (PLoS Pathogens, 2015).
These are yes or no findings as the source states them, for the method shown. For part of these data: Binding seen in cells or lysates may run through a third protein. Some binding calls cover weakened binding; strength is not graded here. For part of these data: Tags and fused reporters may be left off the sequences shown. Each block holds one molecule with its values, some of them ahead of it.

Sequences of proteins named here, by UniProt entry; tags and fusion partners are left off. A change or cut given only in a name is not applied to a line headed by its entry. Residues count along the entry.
UniProt Q86WV6: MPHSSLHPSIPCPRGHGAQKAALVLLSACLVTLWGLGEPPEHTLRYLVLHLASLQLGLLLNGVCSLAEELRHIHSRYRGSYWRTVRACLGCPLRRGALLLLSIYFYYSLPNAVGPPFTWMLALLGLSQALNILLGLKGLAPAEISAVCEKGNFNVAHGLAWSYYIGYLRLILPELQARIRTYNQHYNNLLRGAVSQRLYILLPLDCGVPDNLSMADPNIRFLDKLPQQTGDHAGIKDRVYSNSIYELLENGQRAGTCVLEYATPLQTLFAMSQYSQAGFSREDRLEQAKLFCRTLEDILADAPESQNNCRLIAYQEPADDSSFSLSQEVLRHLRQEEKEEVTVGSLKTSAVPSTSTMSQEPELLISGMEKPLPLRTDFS
STING (amino acids 153–379), yeast two-hybrid bait: residues 153-379 of Q86WV6

How the values were obtained:
HA-tagged PPM1A (human) = molecular target: T1, HA-tagged PPM1A (human) (UniProt P35813); experiment: co-IP; HEK293 cells transfected for 24 h; lysates immunoprecipitated with anti-Myc or anti-HA beads (for TBK1 as in B and C with Flag-TBK1 instead of STING-Myc); immunoblot
T1 sequence: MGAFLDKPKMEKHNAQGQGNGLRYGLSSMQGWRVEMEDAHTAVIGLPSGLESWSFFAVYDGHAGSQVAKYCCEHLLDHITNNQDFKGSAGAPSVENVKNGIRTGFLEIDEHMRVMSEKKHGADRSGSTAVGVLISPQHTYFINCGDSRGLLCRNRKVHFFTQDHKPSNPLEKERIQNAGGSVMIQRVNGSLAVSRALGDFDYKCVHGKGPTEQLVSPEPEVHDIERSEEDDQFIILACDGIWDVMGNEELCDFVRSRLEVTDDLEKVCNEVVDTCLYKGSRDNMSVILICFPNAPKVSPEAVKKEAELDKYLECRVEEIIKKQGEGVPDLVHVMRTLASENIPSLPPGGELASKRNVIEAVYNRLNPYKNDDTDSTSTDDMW

[1] = molecular target: T2, IRF3 in mouse embryonic fibroblasts (mouse (endogenous in MEFs)), P70671; experiment: native gel or EMSA; lysates of primary Ppm1a+/+ and Ppm1a-/- MEFs, untreated or transfected with ISD (2 μg/ml) for 4 h, resolved by native gel electrophoresis; immunoblot; details: remark: other sources report otherwise
T2 chain: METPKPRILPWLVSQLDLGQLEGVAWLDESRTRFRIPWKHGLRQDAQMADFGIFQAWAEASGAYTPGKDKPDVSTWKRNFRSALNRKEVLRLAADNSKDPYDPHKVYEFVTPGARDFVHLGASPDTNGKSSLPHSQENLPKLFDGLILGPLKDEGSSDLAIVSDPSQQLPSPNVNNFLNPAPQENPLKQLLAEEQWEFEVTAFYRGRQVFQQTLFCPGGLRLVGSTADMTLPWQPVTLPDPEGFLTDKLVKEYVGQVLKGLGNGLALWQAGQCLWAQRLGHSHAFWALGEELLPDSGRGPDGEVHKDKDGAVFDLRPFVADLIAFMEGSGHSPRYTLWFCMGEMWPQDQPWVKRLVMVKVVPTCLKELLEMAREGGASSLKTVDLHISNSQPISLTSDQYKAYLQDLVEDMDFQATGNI

[2] = molecular target: STING (amino acids 153–379), yeast two-hybrid bait (human) (UniProt Q86WV6); experiment: two-hybrid; yeast cdc25H strain; STING (amino acids 153–379) as bait, human spleen library (Agilent)
[3] = molecular target: T3, Flag-tagged TBK1 (human), Q9UHD2; experiment: co-IP; HEK293 cells transfected for 24 h; lysates immunoprecipitated with anti-Myc or anti-HA beads (for TBK1 as in B and C with Flag-TBK1 instead of STING-Myc); immunoblot; details: remark: other sources report otherwise
T3 chain: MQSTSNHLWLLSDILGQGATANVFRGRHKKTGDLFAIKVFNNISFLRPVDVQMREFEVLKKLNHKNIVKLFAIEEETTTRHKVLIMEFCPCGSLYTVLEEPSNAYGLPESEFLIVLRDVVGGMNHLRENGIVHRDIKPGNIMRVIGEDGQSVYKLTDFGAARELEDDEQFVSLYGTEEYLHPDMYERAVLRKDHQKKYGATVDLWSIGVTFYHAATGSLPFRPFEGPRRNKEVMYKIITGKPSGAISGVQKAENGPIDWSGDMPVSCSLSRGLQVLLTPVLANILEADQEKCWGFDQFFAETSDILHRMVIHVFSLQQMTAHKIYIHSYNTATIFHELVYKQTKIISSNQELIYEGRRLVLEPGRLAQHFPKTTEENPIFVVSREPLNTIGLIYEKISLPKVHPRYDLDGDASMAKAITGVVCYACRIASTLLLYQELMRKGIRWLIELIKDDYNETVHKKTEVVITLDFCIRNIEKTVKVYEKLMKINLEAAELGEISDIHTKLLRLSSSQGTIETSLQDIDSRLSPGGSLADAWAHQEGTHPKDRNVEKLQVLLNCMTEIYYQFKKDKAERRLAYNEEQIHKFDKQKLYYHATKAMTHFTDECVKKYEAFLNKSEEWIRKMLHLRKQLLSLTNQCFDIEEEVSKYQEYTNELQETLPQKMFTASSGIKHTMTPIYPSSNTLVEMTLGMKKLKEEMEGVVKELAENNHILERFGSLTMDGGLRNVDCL

[4] = molecular target: endogenous STING (THP-1 cells) (human (endogenous in THP-1)) (UniProt Q86WV6); experiment: co-IP; […] immunoblot with anti-PPM1A
[5] = molecular target: STING-Myc (amino acids 1–379) (human) (UniProt Q86WV6); experiment: co-IP; HEK293 cells transfected for 24 h; lysates immunoprecipitated with anti-Myc or anti-HA beads (for TBK1 as in B and C with Flag-TBK1 instead of STING-Myc); immunoblot

binding (HA-tagged PPM1A (human)): binds
Molecule: STING-Myc (amino acids 1–379) (from UniProt Q86WV6 1-379)

binding [4]: binds
B4: endogenous PPM1A (THP-1 cells) (enzyme, UniProt P35813 1-382)
chain: T1 sequence

Further lines, the molecule ahead of its results:

B1: IRF3 in mouse embryonic fibroblasts, P70671 1-419 (protein)
chain: T2 chain
binding [1]: binds

B2: PPM1A, full-length clone from the yeast two-hybrid library (enzyme, UniProt P35813-1 1-382)
chain: T1 sequence
binding [2]: binds

B3: HA-tagged PPM1A, P35813-1 1-382 (enzyme)
chain: T1 sequence
binding [3]: binds

B5: HA-tagged PPM1A (enzyme, UniProt P35813-1 1-382)
chain: T1 sequence
binding [5]: binds
